Data on 1 molecule can be found in publication PMC9156741, “Blocking phospholamban with VHH intrabodies enhances contractility and relaxation in heart failure” (Nature Communications, 2022).

These are yes or no findings as the source states them, for the method shown. Some entries that bind do so weakly or less than the wild type.

For the assay, the target named is T1, PLN peptide IV (biotin-…-NH2).
T1 sequence (peptide, amino terminal linked biotin-group; C-terminal amidation): EKVQYLTRSAIRRASTIE
Put plainly: ELISA; VHHs expressed in small-scale E. coli HB2151 cultures; biotinylated peptide (peptide VI captured on Nunc maxisorb plates coated with 2 ug/ml neutravidin); only the target purified.

B1: VHH B4 (VHH)
VHH: EVQLQESGGGLVQAGGSLRLSCAASGFSFYRHAMGWFRQAPGKEREWVAEIDWEGGYTYYADSVKGRFTISRDNAKNTVYLQMNSLKPEDTAVYYCAAGRDLYAYWGQGTQVTVSS
notes: VHH B4, from the synthetic LlamdA phage-display VHH library (llama VHH framework); also called clone B4; source: E. coli HB2151, small-scale cultures induced with IPTG (ELISA); expressed and purified according to previously described protocols (SPR)
Turning to B1, the binding entry is “binds”.
